Source: patent US7410641B2, “Antibodies to insulin/IGF/relaxin family polypeptides” (priority 2000, dated 2008)
Not every detail of the peptide structures is certain; ends, links or a residue may be inferred. Some compounds share one wording; it may come from a single statement. Some ranges recur; such a range may be that of the whole group of compounds.

Experiments:
[1] = system: human monocyte cell line THP-1 cells; assay: Intracellular cAMP production promoting activity on THP-1 cells; type: cell-based; details: for level of intracellular cAMP produced: forskolin final 1 μM, 37° C. 30 minutes, serial dilutions, cAMP EIA; for comparison of intracellular cAMP production promoting activity (order of strength): polypeptides differing in B chain C-terminal sequence, prepared from E. coli
THP-1 cell line = assay: Cell stimulating activity on THP-1 cell line by microphysiometer (extracellular acidification rate); type: cell-based, human; details: THP-1 cells, 500-fold dilution of preparation, exposure 7 minutes, Cytosensor microphysiometer
[2] = system: matrix metalloprotease-1 (MMP-1) gene expression in normal human lung fibroblast cell line CCD-19Lu; assay: MMP-1 gene expression promoting activity in CCD-19Lu (TaqMan PCR); type: cell-based; details: CCD-19Lu cells, 24 hours incubation
[3] = system: vascular endothelial growth factor (VEGF) gene expression in normal human lung fibroblast cell line CCD-19Lu; assay: VEGF gene expression promoting activity in CCD-19Lu (TaqMan PCR); type: cell-based; details: CCD-19Lu cells, 24 hours incubation
[4] = system: vascular endothelial growth factor (VEGF) gene expression in THP-1 cells; assay: VEGF gene expression promoting activity in THP-1 cells (TaqMan PCR); type: cell-based, human; details: 24 hours incubation
[5] = system: human normal skin fibroblast cell line NHDF cells; assay: cAMP production promoting activity on NHDF cells; type: cell-based; details: with forskolin, 37° C. 30 minutes
[6] = system: rat anterior pituitary primary culture cells; assay: cAMP production promoting activity on rat anterior pituitary primary culture cells; type: cell-based; details: 1 mM IBMX, 37° C. 30 minutes
[7] = system: mouse pulmonary alveolar macrophage; assay: cAMP production promoting activity on mouse pulmonary alveolar macrophage; type: cell-based; details: final concentration 100 nM, 50 μM IBMX, 45 minutes

CC[C@H](C)[C@@H]1NC(=O)[C@H](Cc2ccccc2)NC(=O)[C@H](CCC(=O)O)NC(=O)[C@H](CCCNC(=N)N)NC(=O)CNC(=O)[C@@H](NC(=O)[C@H](CC(C)C)NC(=O)[C@H](CCCNC(=N)N)NC(=O)[C@@H](NC(=O)CNC(=O)[C@H](Cc2ccc(O)cc2)NC(=O)[C@@H]2CCCN2C(=O)[C@H](C)NC(=O)[C@H](C)NC(=O)[C@@H](N)CCCNC(=N)N)C(C)C)CSSC[C@@H]2NC(=O)[C@@H](NC(=O)[C@H](CO)NC(=O)[C@H](CO)NC(=O)[C@H](CO)NC(=O)[C@H](CC(C)C)NC(=O)CNC(=O)[C@H](C)NC(=O)[C@H](CC(C)C)NC(=O)[C@@H](NC(=O)[C@@H](N)CC(=O)O)C(C)C)CSSC[C@H](NC(=O)CNC(=O)[C@H](Cc3c[nH]c4ccccc34)NC(=O)[C@H](CCCCN)NC2=O)C(=O)N[C@@H](CO)C(=O)N[C@@H](CCCCN)C(=O)N[C@@H](CO)C(=O)N[C@@H](CCC(=O)O)C(=O)N[C@@H]([C@@H](C)CC)C(=O)N[C@@H](CO)C(=O)N[C@@H](CO)C(=O)N[C@@H](CC(C)C)C(=O)N[C@H](C(=O)O)CSSC[C@@H](C(=O)NCC(=O)NCC(=O)N[C@@H](CO)C(=O)N[C@@H](CCCNC(=N)N)C(=O)N[C@@H](Cc2c[nH]c3ccccc23)C(=O)O)NC(=O)[C@H]([C@@H](C)O)NC(=O)[C@H](Cc2ccccc2)NC(=O)[C@H]([C@@H](C)CC)NC(=O)[C@H](C(C)C)NC(=O)[C@H](C)NC(=O)[C@H](CCCNC(=N)N)NC1=O
level of intracellular cAMP produced [1]: activity of increasing the level of intracellular cAMP produced against the THP-1 cells dependently on the concentration | level of intracellular cAMP produced ([1]; listed as (16-42)/(110-133)): displayed the activity of increasing the intracellular cAMP production level dependently on the concentration | comparison of intracellular cAMP production promoting activity (order of strength) [1]: stronger in the order of (16-53)/(110-133) >(16-42)/(110-133) (human novel polypeptide)>(1641)/(110-133) | extracellular acidification rate (cell stimulating activity) (THP-1 cell line): transient increase of a rate | relative ratio of MMP-1 gene expression level to that of G3PDH [2]: increased the relative ratio of the gene expression level of MMP-1 and VEGF to that of G3PDH | relative ratio of VEGF gene expression level to that of G3PDH [3]: increased the relative ratio of the gene expression level of MMP-1 and VEGF to that of G3PDH | relative ratio of the VEGF gene expression level to the G3PDH gene expression level [4]: activity of increasing the relative ratio of the VEGF gene expression level to the G3PDH gene expression level | intracellular cAMP level [5]: activity of increasing the intracellular cAMP level on the NHDF cells dependently on the concentration | intracellular cAMP level [6]: activity of increasing the intracellular cAMP level on the rat anterior pituitary primary culture cells dependently on the concentration | increase of intracellular cAMP level compared to control group without addition [7]: about 1.4 times

CC[C@H](C)[C@@H]1NC(=O)[C@H](Cc2ccccc2)NC(=O)[C@H](CCC(=O)O)NC(=O)[C@H](CCCNC(=N)N)NC(=O)CNC(=O)[C@@H](NC(=O)[C@H](CC(C)C)NC(=O)[C@H](CCCNC(=N)N)NC(=O)[C@@H](NC(=O)CNC(=O)[C@H](Cc2ccc(O)cc2)NC(=O)[C@@H]2CCCN2C(=O)[C@H](C)NC(=O)[C@H](C)NC(=O)[C@@H](N)CCCNC(=N)N)C(C)C)CSSC[C@@H]2NC(=O)[C@@H](NC(=O)[C@H](CO)NC(=O)[C@H](CO)NC(=O)[C@H](CO)NC(=O)[C@H](CC(C)C)NC(=O)CNC(=O)[C@H](C)NC(=O)[C@H](CC(C)C)NC(=O)[C@@H](NC(=O)[C@@H](N)CC(=O)O)C(C)C)CSSC[C@H](NC(=O)CNC(=O)[C@H](Cc3c[nH]c4ccccc34)NC(=O)[C@H](CCCCN)NC2=O)C(=O)N[C@@H](CO)C(=O)N[C@@H](CCCCN)C(=O)N[C@@H](CO)C(=O)N[C@@H](CCC(=O)O)C(=O)N[C@@H]([C@@H](C)CC)C(=O)N[C@@H](CO)C(=O)N[C@@H](CO)C(=O)N[C@@H](CC(C)C)C(=O)N[C@H](C(=O)O)CSSC[C@@H](C(=O)NCC(=O)NCC(=O)N[C@@H](CO)C(=O)N[C@@H](CCCNC(=N)N)C(=O)O)NC(=O)[C@H]([C@@H](C)O)NC(=O)[C@H](Cc2ccccc2)NC(=O)[C@H]([C@@H](C)CC)NC(=O)[C@H](C(C)C)NC(=O)[C@H](C)NC(=O)[C@H](CCCNC(=N)N)NC1=O [(16-41)/(110-133)]
level of intracellular cAMP produced [1]: displayed the activity of increasing the intracellular cAMP production level dependently on the concentration | comparison of intracellular cAMP production promoting activity (order of strength) [1]: stronger in the order of (16-53)/(110-133) >(16-42)/(110-133) (human novel polypeptide)>(1641)/(110-133)

CC[C@H](C)[C@@H]1NC(=O)[C@H](Cc2ccccc2)NC(=O)[C@H](CCC(=O)O)NC(=O)[C@H](CCCNC(=N)N)NC(=O)CNC(=O)[C@@H](NC(=O)[C@H](CC(C)C)NC(=O)[C@H](CCCNC(=N)N)NC(=O)[C@@H](NC(=O)CNC(=O)[C@H](Cc2ccc(O)cc2)NC(=O)[C@@H]2CCCN2C(=O)[C@H](C)NC(=O)[C@H](C)NC(=O)[C@@H](N)CCCNC(=N)N)C(C)C)CSSC[C@@H]2NC(=O)[C@@H](NC(=O)[C@H](CO)NC(=O)[C@H](CO)NC(=O)[C@H](CO)NC(=O)[C@H](CC(C)C)NC(=O)CNC(=O)[C@H](C)NC(=O)[C@H](CC(C)C)NC(=O)[C@@H](NC(=O)[C@@H](N)CC(=O)O)C(C)C)CSSC[C@H](NC(=O)CNC(=O)[C@H](Cc3c[nH]c4ccccc34)NC(=O)[C@H](CCCCN)NC2=O)C(=O)N[C@@H](CO)C(=O)N[C@@H](CCCCN)C(=O)N[C@@H](CO)C(=O)N[C@@H](CCC(=O)O)C(=O)N[C@@H]([C@@H](C)CC)C(=O)N[C@@H](CO)C(=O)N[C@@H](CO)C(=O)N[C@@H](CC(C)C)C(=O)N[C@H](C(=O)O)CSSC[C@@H](C(=O)NCC(=O)NCC(=O)N[C@@H](CO)C(=O)N[C@@H](CCCNC(=N)N)C(=O)N[C@@H](Cc2c[nH]c3ccccc23)C(=O)N[C@@H](CCCNC(=N)N)C(=O)N[C@@H](CCCNC(=N)N)C(=O)N[C@@H](CO)C(=O)N[C@@H](CC(=O)O)C(=O)N[C@H](C(=O)N[C@@H](CC(C)C)C(=O)N[C@@H](C)C(=O)N[C@@H](Cc2c[nH]cn2)C(=O)N[C@@H](CCC(=O)O)C(=O)N[C@@H](C)C(=O)N[C@H]2CCOC2=O)[C@@H](C)CC)NC(=O)[C@H]([C@@H](C)O)NC(=O)[C@H](Cc2ccccc2)NC(=O)[C@H]([C@@H](C)CC)NC(=O)[C@H](C(C)C)NC(=O)[C@H](C)NC(=O)[C@H](CCCNC(=N)N)NC1=O [(16-53)/(110-133)]
level of intracellular cAMP produced [1]: displayed the activity of increasing the intracellular cAMP production level dependently on the concentration | comparison of intracellular cAMP production promoting activity (order of strength) [1]: stronger in the order of (16-53)/(110-133) >(16-42)/(110-133) (human novel polypeptide)>(1641)/(110-133)
